According to US20220249538A1, “TREATMENT AGENT FOR SEX HORMONE-INSENSITIVE GREB1-POSITIVE TUMORS” (OSAKA UNIVERSITY, priority 2019, published 2022):
Results are given in words; binding and its absence hold for the method and conditions named. In cells and extracts the contact can be indirect. Some binding calls cover weakened binding; strength is not graded here.

Sequences of proteins named here, by UniProt entry; tags and fusion partners are left off. A change or cut given only in a name is not applied to a line headed by its entry. A line that says so, or that is headed by a name, gives the form on record, which may keep a tag or linker.
HA-FLAG-GREB1 (Q3UHK3, form named): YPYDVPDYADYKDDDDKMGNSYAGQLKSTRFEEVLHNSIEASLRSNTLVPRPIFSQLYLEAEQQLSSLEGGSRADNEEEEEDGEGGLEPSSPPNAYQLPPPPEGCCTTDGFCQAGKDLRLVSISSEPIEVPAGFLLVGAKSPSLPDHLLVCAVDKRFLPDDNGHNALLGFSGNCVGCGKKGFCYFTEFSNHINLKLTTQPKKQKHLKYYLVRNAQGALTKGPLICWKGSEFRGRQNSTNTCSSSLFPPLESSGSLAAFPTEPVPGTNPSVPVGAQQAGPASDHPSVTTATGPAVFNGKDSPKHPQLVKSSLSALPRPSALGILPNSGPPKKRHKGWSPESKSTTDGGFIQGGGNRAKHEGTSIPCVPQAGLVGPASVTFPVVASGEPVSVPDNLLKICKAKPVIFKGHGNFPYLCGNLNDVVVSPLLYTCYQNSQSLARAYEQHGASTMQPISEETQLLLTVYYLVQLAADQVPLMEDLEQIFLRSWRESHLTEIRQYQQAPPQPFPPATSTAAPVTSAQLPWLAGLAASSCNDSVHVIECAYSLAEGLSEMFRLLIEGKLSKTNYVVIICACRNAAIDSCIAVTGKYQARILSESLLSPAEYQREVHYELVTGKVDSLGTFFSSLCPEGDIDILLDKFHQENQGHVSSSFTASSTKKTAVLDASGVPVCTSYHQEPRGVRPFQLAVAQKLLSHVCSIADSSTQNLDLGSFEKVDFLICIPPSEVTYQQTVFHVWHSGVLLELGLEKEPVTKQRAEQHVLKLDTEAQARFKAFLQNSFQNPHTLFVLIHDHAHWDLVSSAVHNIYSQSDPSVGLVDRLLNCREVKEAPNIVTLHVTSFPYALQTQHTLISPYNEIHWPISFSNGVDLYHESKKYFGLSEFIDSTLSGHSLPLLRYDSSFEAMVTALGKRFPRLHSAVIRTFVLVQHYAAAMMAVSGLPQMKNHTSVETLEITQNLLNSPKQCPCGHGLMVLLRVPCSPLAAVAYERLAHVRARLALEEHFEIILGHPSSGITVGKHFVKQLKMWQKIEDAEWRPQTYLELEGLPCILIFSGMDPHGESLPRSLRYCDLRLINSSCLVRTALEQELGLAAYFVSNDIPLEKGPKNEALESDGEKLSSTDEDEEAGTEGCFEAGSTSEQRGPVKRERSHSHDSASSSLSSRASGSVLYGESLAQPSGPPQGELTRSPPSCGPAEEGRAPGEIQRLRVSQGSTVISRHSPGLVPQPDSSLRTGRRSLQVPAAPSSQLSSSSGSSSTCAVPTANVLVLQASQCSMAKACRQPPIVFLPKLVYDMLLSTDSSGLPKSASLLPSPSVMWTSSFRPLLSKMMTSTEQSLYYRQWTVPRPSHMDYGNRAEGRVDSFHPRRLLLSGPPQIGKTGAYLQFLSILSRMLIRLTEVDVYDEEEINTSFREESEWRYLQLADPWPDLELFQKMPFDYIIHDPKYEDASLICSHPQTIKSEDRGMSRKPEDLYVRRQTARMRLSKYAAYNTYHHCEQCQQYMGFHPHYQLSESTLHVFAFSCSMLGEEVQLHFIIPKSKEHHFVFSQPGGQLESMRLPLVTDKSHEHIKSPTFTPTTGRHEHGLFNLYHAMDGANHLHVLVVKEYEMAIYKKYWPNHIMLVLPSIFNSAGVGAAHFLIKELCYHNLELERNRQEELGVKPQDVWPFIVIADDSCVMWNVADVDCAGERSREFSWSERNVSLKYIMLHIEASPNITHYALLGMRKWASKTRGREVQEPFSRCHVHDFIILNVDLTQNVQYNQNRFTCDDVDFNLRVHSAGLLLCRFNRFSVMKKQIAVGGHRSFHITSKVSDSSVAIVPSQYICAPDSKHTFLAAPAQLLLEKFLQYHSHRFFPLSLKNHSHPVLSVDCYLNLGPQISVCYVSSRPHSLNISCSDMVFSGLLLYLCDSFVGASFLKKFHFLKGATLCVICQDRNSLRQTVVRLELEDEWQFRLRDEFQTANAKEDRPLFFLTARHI

Key:
GFP-Smad3 (human) = test: co-immunoprecipitation with anti-GFP antibody, X293T lysates, anti-HA blot
GFP-Smad7 (human) = test: as above

binding (GFP-Smad3 (human)): binds | binding (GFP-Smad7 (human)): binds
Substance: HA-FLAG-GREB1 (from UniProt Q3UHK3 1-1954)
